Reference: paper PMC7710275
No constants are given. Whether binding was seen depends on the method and setting. Binding seen in cells or lysates may run through a third protein. A yes stands for co-enrichment or nearness to the bait. Other partners may have been found.

Protein sequences, listed by entry. Tags and fused reporters are not part of them.
UniProt Q9H4A3: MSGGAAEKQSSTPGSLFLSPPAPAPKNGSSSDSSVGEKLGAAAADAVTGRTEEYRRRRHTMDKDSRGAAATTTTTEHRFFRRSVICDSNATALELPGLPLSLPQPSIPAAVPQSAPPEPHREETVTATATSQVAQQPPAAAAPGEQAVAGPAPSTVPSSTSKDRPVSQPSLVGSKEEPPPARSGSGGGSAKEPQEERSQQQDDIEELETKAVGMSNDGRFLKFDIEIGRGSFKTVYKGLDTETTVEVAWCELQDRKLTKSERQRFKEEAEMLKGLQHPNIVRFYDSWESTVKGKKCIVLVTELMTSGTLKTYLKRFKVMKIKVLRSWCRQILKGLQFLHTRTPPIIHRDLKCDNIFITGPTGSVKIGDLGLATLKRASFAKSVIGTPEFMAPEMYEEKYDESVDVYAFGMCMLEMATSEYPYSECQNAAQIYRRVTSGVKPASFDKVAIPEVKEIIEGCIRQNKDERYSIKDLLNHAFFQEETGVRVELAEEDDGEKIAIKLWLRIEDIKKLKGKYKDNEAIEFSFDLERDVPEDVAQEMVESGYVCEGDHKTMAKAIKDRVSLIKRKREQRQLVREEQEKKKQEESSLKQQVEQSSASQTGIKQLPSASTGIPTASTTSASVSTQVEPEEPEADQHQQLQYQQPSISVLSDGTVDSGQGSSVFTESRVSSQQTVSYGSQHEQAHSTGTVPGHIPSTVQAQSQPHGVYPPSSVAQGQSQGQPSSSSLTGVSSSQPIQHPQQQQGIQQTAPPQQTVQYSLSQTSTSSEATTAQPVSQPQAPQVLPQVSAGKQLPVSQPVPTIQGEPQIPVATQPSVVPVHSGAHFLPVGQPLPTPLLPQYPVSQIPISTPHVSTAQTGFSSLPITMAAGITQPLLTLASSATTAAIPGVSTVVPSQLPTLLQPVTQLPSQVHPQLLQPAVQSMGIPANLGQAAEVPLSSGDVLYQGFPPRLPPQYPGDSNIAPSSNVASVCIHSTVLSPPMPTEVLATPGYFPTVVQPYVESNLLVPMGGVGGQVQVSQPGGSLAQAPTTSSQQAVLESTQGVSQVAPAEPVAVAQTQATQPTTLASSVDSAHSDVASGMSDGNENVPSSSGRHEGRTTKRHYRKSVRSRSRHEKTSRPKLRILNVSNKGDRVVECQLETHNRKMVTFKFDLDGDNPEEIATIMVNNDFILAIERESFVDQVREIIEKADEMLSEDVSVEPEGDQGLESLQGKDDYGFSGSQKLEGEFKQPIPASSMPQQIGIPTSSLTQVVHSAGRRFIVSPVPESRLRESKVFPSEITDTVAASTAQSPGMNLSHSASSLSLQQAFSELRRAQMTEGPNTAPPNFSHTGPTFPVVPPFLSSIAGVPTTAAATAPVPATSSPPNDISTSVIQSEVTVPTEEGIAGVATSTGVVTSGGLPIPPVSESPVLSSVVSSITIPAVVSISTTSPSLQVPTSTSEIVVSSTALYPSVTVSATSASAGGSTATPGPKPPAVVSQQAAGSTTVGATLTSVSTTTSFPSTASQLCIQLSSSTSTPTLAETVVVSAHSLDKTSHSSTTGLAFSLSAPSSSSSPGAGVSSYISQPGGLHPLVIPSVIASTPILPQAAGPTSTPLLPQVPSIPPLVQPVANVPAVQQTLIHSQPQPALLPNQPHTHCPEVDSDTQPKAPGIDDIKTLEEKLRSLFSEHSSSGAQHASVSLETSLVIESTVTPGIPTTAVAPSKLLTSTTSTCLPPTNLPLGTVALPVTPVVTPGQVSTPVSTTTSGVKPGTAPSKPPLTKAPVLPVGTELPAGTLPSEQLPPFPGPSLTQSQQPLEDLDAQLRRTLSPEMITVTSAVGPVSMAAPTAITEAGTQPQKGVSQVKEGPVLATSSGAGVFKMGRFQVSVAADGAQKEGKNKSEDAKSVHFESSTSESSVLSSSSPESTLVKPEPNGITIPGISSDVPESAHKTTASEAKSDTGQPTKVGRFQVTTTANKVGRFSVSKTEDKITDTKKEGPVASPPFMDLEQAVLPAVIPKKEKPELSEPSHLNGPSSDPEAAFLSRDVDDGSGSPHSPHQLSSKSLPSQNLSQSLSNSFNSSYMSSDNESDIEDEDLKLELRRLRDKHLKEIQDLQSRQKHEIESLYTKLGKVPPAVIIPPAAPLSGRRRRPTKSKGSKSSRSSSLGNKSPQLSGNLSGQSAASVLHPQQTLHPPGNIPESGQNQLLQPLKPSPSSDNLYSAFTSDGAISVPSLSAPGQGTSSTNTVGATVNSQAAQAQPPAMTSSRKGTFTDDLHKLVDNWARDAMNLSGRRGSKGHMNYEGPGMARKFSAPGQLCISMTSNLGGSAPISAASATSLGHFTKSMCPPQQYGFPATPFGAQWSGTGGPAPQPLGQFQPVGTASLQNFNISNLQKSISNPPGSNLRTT
UniProt Q15436: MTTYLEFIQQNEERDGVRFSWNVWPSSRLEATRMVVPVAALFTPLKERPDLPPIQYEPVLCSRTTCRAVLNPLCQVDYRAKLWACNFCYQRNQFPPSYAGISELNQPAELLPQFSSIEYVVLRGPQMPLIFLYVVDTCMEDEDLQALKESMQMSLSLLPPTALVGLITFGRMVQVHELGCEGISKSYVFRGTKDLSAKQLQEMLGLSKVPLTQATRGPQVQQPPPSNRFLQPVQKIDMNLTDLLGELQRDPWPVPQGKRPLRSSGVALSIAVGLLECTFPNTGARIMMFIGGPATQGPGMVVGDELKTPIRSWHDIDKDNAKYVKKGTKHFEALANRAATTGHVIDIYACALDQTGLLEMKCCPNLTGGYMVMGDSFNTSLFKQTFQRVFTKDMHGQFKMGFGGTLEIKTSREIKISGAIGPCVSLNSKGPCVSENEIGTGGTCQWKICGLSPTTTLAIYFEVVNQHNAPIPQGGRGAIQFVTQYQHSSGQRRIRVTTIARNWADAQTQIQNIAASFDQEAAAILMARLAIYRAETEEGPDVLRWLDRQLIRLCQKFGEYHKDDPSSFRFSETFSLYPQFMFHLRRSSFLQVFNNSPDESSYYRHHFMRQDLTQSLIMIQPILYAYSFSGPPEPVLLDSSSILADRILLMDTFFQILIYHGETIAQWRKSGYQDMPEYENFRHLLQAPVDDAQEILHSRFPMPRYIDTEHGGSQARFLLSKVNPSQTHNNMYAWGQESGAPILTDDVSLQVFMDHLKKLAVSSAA
UniProt Q9P219: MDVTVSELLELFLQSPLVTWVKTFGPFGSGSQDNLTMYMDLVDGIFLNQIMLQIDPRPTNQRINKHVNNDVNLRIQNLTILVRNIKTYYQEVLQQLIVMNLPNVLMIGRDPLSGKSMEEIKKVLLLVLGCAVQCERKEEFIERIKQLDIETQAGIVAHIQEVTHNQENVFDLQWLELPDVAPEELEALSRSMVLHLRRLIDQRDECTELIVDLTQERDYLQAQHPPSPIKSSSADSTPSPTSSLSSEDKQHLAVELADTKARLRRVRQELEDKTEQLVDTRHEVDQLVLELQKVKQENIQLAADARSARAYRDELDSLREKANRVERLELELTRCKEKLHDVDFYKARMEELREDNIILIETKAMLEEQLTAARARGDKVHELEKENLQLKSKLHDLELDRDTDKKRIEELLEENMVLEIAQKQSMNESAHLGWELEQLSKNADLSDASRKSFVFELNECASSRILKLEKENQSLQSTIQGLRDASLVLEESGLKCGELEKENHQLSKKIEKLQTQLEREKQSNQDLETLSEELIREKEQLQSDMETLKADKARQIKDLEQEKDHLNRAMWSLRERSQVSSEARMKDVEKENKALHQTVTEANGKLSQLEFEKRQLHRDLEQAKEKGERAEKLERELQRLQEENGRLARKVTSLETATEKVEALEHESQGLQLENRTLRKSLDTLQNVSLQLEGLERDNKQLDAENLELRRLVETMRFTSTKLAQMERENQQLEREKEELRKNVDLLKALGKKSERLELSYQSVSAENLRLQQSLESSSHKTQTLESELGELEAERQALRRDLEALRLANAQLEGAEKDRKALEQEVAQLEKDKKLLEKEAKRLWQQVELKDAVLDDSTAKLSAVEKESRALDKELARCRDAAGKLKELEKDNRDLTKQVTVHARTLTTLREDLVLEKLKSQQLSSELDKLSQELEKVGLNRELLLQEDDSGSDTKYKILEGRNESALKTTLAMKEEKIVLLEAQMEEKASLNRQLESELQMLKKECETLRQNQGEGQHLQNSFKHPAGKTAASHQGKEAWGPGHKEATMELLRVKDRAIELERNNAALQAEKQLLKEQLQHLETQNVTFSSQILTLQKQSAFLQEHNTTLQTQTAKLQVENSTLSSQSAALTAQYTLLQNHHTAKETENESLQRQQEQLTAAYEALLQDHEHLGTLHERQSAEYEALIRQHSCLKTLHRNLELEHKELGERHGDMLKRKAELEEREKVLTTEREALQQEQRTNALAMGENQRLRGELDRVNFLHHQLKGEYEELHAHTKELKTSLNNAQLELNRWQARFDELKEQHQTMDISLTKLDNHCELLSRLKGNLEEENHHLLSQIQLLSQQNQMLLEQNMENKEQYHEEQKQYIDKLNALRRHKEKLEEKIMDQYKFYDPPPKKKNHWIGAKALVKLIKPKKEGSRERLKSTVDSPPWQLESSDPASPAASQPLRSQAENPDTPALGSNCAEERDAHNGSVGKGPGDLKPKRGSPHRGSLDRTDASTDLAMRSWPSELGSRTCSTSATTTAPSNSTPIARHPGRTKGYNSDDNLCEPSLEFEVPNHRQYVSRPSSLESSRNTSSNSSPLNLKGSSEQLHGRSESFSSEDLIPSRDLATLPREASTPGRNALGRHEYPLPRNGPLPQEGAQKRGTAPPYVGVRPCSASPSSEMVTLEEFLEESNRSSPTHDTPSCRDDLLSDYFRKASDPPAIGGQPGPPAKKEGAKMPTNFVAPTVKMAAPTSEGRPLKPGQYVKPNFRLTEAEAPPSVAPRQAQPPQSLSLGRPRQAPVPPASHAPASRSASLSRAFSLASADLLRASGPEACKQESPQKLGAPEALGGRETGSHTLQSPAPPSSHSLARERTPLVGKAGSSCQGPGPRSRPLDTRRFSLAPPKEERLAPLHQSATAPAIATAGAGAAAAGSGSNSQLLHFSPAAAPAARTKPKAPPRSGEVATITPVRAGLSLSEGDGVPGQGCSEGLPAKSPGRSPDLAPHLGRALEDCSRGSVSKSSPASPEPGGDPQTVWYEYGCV
UniProt P52732: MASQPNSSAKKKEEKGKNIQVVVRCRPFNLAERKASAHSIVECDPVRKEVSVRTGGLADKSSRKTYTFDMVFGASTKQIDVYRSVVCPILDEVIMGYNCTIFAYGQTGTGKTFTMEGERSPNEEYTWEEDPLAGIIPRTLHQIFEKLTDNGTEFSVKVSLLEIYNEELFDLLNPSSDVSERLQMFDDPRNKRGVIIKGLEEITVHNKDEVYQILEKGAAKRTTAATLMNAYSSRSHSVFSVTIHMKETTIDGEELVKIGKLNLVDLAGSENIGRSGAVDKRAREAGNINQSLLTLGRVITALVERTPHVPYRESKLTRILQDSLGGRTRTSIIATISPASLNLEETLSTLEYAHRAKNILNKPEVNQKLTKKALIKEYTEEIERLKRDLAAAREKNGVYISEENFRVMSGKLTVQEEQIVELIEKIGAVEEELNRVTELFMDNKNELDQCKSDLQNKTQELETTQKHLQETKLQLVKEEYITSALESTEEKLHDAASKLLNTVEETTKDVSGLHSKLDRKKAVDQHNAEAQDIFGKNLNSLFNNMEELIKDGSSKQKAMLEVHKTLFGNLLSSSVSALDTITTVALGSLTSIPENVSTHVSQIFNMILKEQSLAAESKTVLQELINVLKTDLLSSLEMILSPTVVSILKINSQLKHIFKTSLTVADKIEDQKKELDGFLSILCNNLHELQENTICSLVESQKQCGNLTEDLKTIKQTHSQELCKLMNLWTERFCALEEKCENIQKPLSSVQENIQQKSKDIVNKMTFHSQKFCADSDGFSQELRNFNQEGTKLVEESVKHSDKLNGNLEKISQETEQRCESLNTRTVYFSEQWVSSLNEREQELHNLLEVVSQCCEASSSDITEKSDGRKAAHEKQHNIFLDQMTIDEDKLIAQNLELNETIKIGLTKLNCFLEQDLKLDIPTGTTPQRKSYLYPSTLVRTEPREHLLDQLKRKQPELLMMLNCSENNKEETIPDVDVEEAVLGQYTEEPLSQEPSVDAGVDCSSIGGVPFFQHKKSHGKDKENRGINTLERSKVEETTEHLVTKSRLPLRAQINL

B1: OFD1 (protein, UniProt O75665 1-1012)
chain: MMAQSNMFTVADVLSQDELRKKLYQTFKDRGILDTLKTQLRNQLIHELMHPVLSGELQPRSISVEGSSLLIGASNSLVADHLQRCGYEYSLSVFFPESGLAKEKVFTMQDLLQLIKINPTSSLYKSLVSGSDKENQKGFLMHFLKELAEYHQAKESCNMETQTSSTFNRDSLAEKLQLIDDQFADAYPQRIKFESLEIKLNEYKREIEEQLRAEMCQKLKFFKDTEIAKIKMEAKKKYEKELTMFQNDFEKACQAKSEALVLREKSTLERIHKHQEIETKEIYAQRQLLLKDMDLLRGREAELKQRVEAFELNQKLQEEKHKSITEALRRQEQNIKSFEETYDRKLKNELLKYQLELKDDYIIRTNRLIEDERKNKEKAVHLQEELIAINSKKEELNQSVNRVKELELELESVKAQSLAITKQNHMLNEKVKEMSDYSLLKEEKLELLAQNKLLKQQLEESRNENLRLLNRLAQPAPELAVFQKELRKAEKAIVVEHEEFESCRQALHKQLQDEIEHSAQLKAQILGYKASVKSLTTQVADLKLQLKQTQTALENEVYCNPKQSVIDRSVNGLINGNVVPCNGEISGDFLNNPFKQENVLARMVASRITNYPTAWVEGSSPDSDLEFVANTKARVKELQQEAERLEKAFRSYHRRVIKNSAKSPLAAKSPPSLHLLEAFKNITSSSPERHIFGEDRVVSEQPQVGTLEERNDVVEALTGSAASRLRGGTSSRRLSSTPLPKAKRSLESEMYLEGLGRSHIASPSPCPDRMPLPSPTESRHSLSIPPVSSPPEQKVGLYRRQTELQDKSEFSDVDKLAFKDNEEFESSFESAGNMPRQLEMGGLSPAGDMSHVDAAAAAVPLSYQHPSVDQKQIEEQKEEEKIREQQVKERRQREERRQSNLQEVLERERRELEKLYQERKMIEESLKIKIKKELEMENELEMSNQEIKDKSAHSENPLEKYMKIIQQEQDQESADKSSKKMVQEGSLVDTLQSSDKVESLTGFSHEELDDSW
B2: PPP6R3 (protein, UniProt Q5H9R7 1-873)
chain: MFWKFDLHSSSHIDTLLEREDVTLKELMDEEDVLQECKAQNRKLIEFLLKAECLEDLVSFIIEEPPQDMDEKIRYKYPNISCELLTSDVSQMNDRLGEDESLLMKLYSFLLNDSPLNPLLASFFSKVLSILISRKPEQIVDFLKKKHDFVDLIIKHIGTSAIMDLLLRLLTCIEPPQPRQDVLNWLNEEKIIQRLVEIVHPSQEEDRHSNASQSLCEIVRLSRDQMLQIQNSTEPDPLLATLEKQEIIEQLLSNIFHKEKNESAIVSAIQILLTLLETRRPTFEGHIEICPPGMSHSACSVNKSVLEAIRGRLGSFHELLLEPPKKSVMKTTWGVLDPPVGNTRLNVIRLISSLLQTNTSSINGDLMELNSIGVILNMFFKYTWNNFLHTQVEICIALILASPFENTENATITDQDSTGDNLLLKHLFQKCQLIERILEAWEMNEKKQAEGGRRHGYMGHLTRIANCIVHSTDKGPNSALVQQLIKDLPDEVRERWETFCTSSLGETNKRNTVDLVTTCHIHSSSDDEIDFKETGFSQDSSLQQAFSDYQMQQMTSNFIDQFGFNDEKFADQDDIGNVSFDRVSDINFTLNTNESGNIALFEACCKERIQQFDDGGSDEEDIWEEKHIAFTPESQRRSSSGSTDSEESTDSEEEDGAKQDLFEPSSANTEDKMEVDLSEPPNWSANFDVPMETTHGAPLDSVGSDVWSTEEPMPTKETGWASFSEFTSSLSTKDSLRSNSPVEMETSTEPMDPLTPSAAALAVQPEAAGSVAMEASSDGEEDAESTDKVTETVMNGGMKETLSLTVDAKTETAVFKSEEGKLSTSQDAACKDAEECPETAEAKCAAPRPPSSSPEQRTGQPSAPGDTSVNGPV
B3: EMC1 (protein, UniProt Q8N766 23-993)
chain: YEDQVGKFDWRQQYVGKVKFASLEFSPGSKKLVVATEKNVIAALNSRTGEILWRHVDKGTAEGAVDAMLLHGQDVITVSNGGRIMRSWETNIGGLNWEITLDSGSFQALGLVGLQESVRYIAVLKKTTLALHHLSSGHLKWVEHLPESDSIHYQMVYSYGSGVVWALGVVPFSHVNIVKFNVEDGEIVQQVRVSTPWLQHLSGACGVVDEAVLVCPDPSSRSLQTLALETEWELRQIPLQSLDLEFGSGFQPRVLPTQPNPVDASRAQFFLHLSPSHYALLQYHYGTLSLLKNFPQTALVSFATTGEKTVAAVMACRNEVQKSSSSEDGSMGSFSEKSSSKDSLACFNQTYTINLYLVETGRRLLDTTITFSLEQSGTRPERLYIQVFLKKDDSVGYRALVQTEDHLLLFLQQLAGKVVLWSREESLAEVVCLEMVDLPLTGAQAELEGEFGKKADGLLGMFLKRLSSQLILLQAWTSHLWKMFYDARKPRSQIKNEINIDTLARDEFNLQKMMVMVTASGKLFGIESSSGTILWKQYLPNVKPDSSFKLMVQRTTAHFPHPPQCTLLVKDKESGMSSLYVFNPIFGKWSQVAPPVLKRPILQSLLLPVMDQDYAKVLLLIDDEYKVTAFPATRNVLRQLHELAPSIFFYLVDAEQGRLCGYRLRKDLTTELSWELTIPPEVQRIVKVKGKRSSEHVHSQGRVMGDRSVLYKSLNPNLLAVVTESTDAHHERTFIGIFLIDGVTGRIIHSSVQKKAKGPVHIVHSENWVVYQYWNTKARRNEFTVLELYEGTEQYNATAFSSLDRPQLPQVLQQSYIFPSSISAMEATITERGITSRHLLIGLPSGAILSLPKALLDPRRPEIPTEQSREENLIPYSPDVQIHAERFINYNQTVSRMRGIYTAPSGLESTCLVVAYGLDIYQTRVYPSKQFDVLKDDYDYVLISSVLFGLVFATMITKRLAQVKLLNRAWR
B4: HM13 (protein, UniProt Q8TCT9 1-377)
chain: MDSALSDPHNGSAEAGGPTNSTTRPPSTPEGIALAYGSLLLMALLPIFFGALRSVRCARGKNASDMPETITSRDAARFPIIASCTLLGLYLFFKIFSQEYINLLLSMYFFVLGILALSHTISPFMNKFFPASFPNRQYQLLFTQGSGENKEEIINYEFDTKDLVCLGLSSIVGVWYLLRKHWIANNLFGLAFSLNGVELLHLNNVSTGCILLGGLFIYDVFWVFGTNVMVTVAKSFEAPIKLVFPQDLLEKGLEANNFAMLGLGDVVIPGIFIALLLRFDISLKKNTHTYFYTSFAAYIFGLGLTIFIMHIFKHAQPALLYLVPACIGFPVLVALAKGEVTEMFSYEESNPKDPAAVTESKEGTEASASKGLEKKEK
B5: HYOU1 (protein, UniProt Q9Y4L1 33-999)
chain: LAVMSVDLGSESMKVAIVKPGVPMEIVLNKESRRKTPVIVTLKENERFFGDSAASMAIKNPKATLRYFQHLLGKQADNPHVALYQARFPEHELTFDPQRQTVHFQISSQLQFSPEEVLGMVLNYSRSLAEDFAEQPIKDAVITVPVFFNQAERRAVLQAARMAGLKVLQLINDNTATALSYGVFRRKDINTTAQNIMFYDMGSGSTVCTIVTYQMVKTKEAGMQPQLQIRGVGFDRTLGGLEMELRLRERLAGLFNEQRKGQRAKDVRENPRAMAKLLREANRLKTVLSANADHMAQIEGLMDDVDFKAKVTRVEFEELCADLFERVPGPVQQALQSAEMSLDEIEQVILVGGATRVPRVQEVLLKAVGKEELGKNINADEAAAMGAVYQAAALSKAFKVKPFVVRDAVVYPILVEFTREVEEEPGIHSLKHNKRVLFSRMGPYPQRKVITFNRYSHDFNFHINYGDLGFLGPEDLRVFGSQNLTTVKLKGVGDSFKKYPDYESKGIKAHFNLDESGVLSLDRVESVFETLVEDSAEEESTLTKLGNTISSLFGGGTTPDAKENGTDTVQEEEESPAEGSKDEPGEQVELKEEAEAPVEDGSQPPPPEPKGDATPEGEKATEKENGDKSEAQKPSEKAEAGPEGVAPAPEGEKKQKPARKRRMVEEIGVELVVLDLPDLPEDKLAQSVQKLQDLTLRDLEKQEREKAANSLEAFIFETQDKLYQPEYQEVSTEEQREEISGKLSAASTWLEDEGVGATTVMLKEKLAELRKLCQGLFFRVEERKKWPERLSALDNLLNHSSMFLKGARLIPEMDQIFTEVEMTTLEKVINETWAWKNATLAEQAKLPATEKPVLLSKDIEAKMMALDREVQYLLNKAKFTKPRPRPKDKNGTRAEPPLNASASDQGEKVIPPAGQTEDAEPISEPEKVETGSEPGDTEPLELGGPGAEPEQKEQSTGQKRPLKNDEL

Target: WNK1 (with no lysine [K] kinase 1) (human (endogenous in HEC1A)) (UniProt Q9H4A3)
Assay: affinity purification with mass spectrometry; endogenous WNK1 immunoprecipitated from HEC1A lysate with a WNK1 antibody (rabbit IgG as negative control) on protein A/G beads; lysis buffer 50 mM Tris-HCl pH 7.5, 150 mM NaCl, 1 mM EDTA, 1% NP-40, 1% sodium deoxycholate, 0.1% SDS; gel, trypsin digest, LC/MS

binding, binds:
SEC23A (from UniProt Q15436 1-765)
RAD50 (from UniProt Q92878 1-1312)
FANCI (from UniProt Q9NVI1 1-1328)
AIFM1 (from UniProt O95831)
CCDC88C (from UniProt Q9P219 1-2028)
PPP2R1A, the alpha isoform of the scaffold subunit A of PP2A (from UniProt P30153 1-589)
UGGT1 (from UniProt Q9NYU2 43-1555)
oxidative stress responsive kinase 1 (OXSR1/OSR1) (from UniProt O95747 1-527)
KIF11 (from UniProt P52732 1-1056)

Target: WNK1 (with no lysine [K] kinase 1) (human (endogenous in HEC1A)) (UniProt Q9H4A3)
Assay: as above
Remark: another data set of the same source

binding, binds:
B1
B2
B3
B4
B5
